# These are yes or no findings as the source states them, for the method shown. For part of these data: Binding seen in cells or lysates may run through a third protein. Some binding calls cover weakened binding; strength is not graded here.
# Sequences of proteins named here, by UniProt entry; tags and fusion partners are left off. A change or cut given only in a name is not applied to a line headed by its entry. Residues count along the entry.
# UniProt Q9NZQ7: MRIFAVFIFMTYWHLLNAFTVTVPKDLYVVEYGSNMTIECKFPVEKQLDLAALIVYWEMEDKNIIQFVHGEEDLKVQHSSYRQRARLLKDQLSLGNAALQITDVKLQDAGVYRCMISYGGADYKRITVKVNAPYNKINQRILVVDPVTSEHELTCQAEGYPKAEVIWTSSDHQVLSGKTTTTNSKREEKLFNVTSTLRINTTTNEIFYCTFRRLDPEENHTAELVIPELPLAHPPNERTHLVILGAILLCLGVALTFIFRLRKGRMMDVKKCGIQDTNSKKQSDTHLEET
# PD-L1, endogenous (human (endogenous in G.C. cells)): residues 19-290 of Q9NZQ7
# UniProt Q13263: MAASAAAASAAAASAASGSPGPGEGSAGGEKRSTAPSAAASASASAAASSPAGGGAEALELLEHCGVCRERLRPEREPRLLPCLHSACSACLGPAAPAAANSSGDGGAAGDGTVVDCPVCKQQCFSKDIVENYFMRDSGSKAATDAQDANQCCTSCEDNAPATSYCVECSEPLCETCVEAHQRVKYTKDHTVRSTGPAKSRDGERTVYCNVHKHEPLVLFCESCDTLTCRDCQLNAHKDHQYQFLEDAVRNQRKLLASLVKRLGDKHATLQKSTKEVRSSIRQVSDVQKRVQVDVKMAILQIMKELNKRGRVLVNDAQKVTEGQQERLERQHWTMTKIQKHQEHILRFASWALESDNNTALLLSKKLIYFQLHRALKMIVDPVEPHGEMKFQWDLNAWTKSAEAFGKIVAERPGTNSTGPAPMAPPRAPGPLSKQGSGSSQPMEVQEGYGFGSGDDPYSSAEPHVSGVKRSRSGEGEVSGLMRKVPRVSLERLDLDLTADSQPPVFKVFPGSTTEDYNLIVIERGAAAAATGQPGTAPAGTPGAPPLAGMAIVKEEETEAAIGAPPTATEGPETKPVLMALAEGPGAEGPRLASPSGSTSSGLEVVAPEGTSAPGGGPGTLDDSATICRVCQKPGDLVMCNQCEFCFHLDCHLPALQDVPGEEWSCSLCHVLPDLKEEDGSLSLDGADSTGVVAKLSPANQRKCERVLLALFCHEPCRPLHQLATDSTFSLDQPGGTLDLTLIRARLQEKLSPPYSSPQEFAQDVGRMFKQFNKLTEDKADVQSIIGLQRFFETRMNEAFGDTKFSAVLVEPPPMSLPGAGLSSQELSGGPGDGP
# Experiments:
# [1] = biological target: PD-L1 full-length, expressed from a construct (UniProt Q9NZQ7); test: co-IP; whole G.C. cell lysates in I.P. buffer (NP-40, 50 mM Tris-HCl pH 7.4, 50 mM EDTA, 150 mM NaCl); antibody 2 h at 4 °C, protein A/G agarose beads overnight at 4 °C; five washes; immunoblot; ectopically expressed or endogenous proteins
# [2] = biological target: PD-L1, endogenous (human (endogenous in G.C. cells)) (UniProt Q9NZQ7); test: as above
# [3] = biological target: Myc-PD-L1, produced by in vitro transcription and translation (UniProt Q9NZQ7); test: binding of in vitro translated proteins, read by western blot; TRIM28 and Myc-PD-L1 produced with the in vitro transcription and translation system; how the complex was isolated is not told
substance,measurement,setting,value
"TRIM28 full-length, ectopically expressed (from UniProt Q13263 1-835)",binding,[1],binds
"TRIM28, endogenous (from UniProt Q13263 1-835)",binding,[2],binds
"TRIM28, produced by in vitro transcription and translation (from UniProt Q13263 1-835)",binding,[3],binds
